# Screening data, single-dose tests

The chains behind the UniProt entries cited, without tags or fusion partners. Residues count along the entry.
UniProt Q8IDJ8, 1-583: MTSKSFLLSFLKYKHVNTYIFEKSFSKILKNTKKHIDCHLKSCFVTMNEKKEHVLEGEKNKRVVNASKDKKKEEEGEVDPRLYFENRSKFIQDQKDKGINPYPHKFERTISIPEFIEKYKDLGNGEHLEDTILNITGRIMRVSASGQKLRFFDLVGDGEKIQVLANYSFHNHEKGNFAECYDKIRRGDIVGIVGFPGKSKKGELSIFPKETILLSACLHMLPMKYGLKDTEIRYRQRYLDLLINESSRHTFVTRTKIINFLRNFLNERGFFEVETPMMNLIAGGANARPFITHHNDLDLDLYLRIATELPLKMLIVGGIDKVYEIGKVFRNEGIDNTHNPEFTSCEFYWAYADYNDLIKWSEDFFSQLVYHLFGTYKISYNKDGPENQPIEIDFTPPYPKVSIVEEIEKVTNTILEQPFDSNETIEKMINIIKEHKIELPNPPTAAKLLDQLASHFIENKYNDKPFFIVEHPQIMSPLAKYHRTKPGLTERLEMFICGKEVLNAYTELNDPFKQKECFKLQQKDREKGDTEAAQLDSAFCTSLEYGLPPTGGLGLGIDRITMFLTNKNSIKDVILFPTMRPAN

Source: ChEMBL document CHEMBL3988442, “University of Dundee, Small-Polar-MMV Screening Library” (2021).

The filed quantity is “Percent Effect” (%). The record does not define 0% and 100%; most values in the screen are far below 50% and negative numbers occur (in some assays of this library far below -100). Compounds were drawn at random from those tested, without regard to their results.

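Lysine-tRNA ligase, Plasmodium falciparum 3D7 (UniProt Q8IDJ8). Enzyme assay of the cytosolic lysyl-tRNA synthetase in 384-well plates, read by luminescence. Tested at 30 µM. Direction is inferred from only a few compounds that gave an IC50; most scored high, so higher reads as stronger inhibition. Of about 69,000 compounds tested this way, about 49 (0.071%) reached 50% or more in at least one test.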

| structure | percent effect |
|---|---|
| `Cc1nn(C)c(C)c1NC(=O)CNc1cc(C(F)(F)F)ccc1F` | 1.087 |
| `COc1ccc(C(C)=O)c(OCC(=O)NC(C)c2ccc(F)cc2)c1` (stereo not shown) | 3.924 |
| `COCCNCc1ccc(OCC(=O)NC(C)(C)C)cc1` | -2.079 |
| `CC(=O)NC(Cc1c[nH]c2cc(F)ccc12)C(=O)Nc1cnn(C)c1` (stereo not shown) | 1.576 |
| `Cc1cc(O)c(OCC(=O)/N=c2\[nH]cc(C)s2)cn1` | 8.671 |
| `O=C(c1cscn1)N1C[C@H](OCc2cccnc2)[C@H]2COC[C@H]21` | -2.315 |
| `CC(C(=O)N(C)Cc1ccco1)n1cncn1` (stereo not shown) | 5.057 |
| `CCN(Cc1cnn(C)c1)C(=O)c1ccccc1O` | 1.149 |
| `Cc1ccc(N2CCCC(NCc3nnc(-c4ccco4)o3)C2)nn1` (stereo not shown) | -0.328 |
| `O=S(=O)(CCCN1CCCCC1Cn1cncn1)c1ccccc1` (stereo not shown) | 1.474 |
| `COCCN1C(=O)CC[C@@H]2[C@H]1CCN2Cc1ccc(C)s1` | -2.09 |
| `COc1ccc(-c2noc([C@@H]3C[C@@H](O)CN3C3CCCCC3)n2)cc1` | 4.842 |
| `COc1ccnc(N2CCN(C(=O)c3csnn3)CC2)n1` | -0.1891 |
| `Cc1ccc2c(n1)N(CCN(C)C)CCN(C(=O)c1cscn1)C2` | 0.7788 |
| `CSCCC(=O)N1CCN(CC(C)O)CC1` (stereo not shown) | 2.31 |
| `COc1cccc(CN(C)c2ncc(C(N)=O)cc2Cl)c1` | 2.975 |
| `Cc1ccc(S(C)(=O)=O)cc1NCC(=O)NCCC1=CCCCC1` | 4.922 |
| `O=C(NCc1nc2cc(F)ccc2[nH]1)c1ccc[nH]1` | -1.121 |
| `O=C(CCSC1CCc2ccccc2NC1=O)NCCCO` (stereo not shown) | 2.817 |
| `Cc1cc(C)nc(C2CCN(c3ccncn3)C2)n1` (stereo not shown) | 0.4577 |
| `Cc1cccc(N2CCN(C(=O)CCc3c(C)noc3Cl)CC2)c1` | 0.8202 |
| `O=C(NCC(O)Cc1ccccc1)c1ccc2[nH]c(=O)[nH]c2c1` (stereo not shown) | 1.842 |
| `Cc1noc(C2CCN(C(=O)c3ccc(C(F)(F)F)nc3)CC2)n1` | 1.654 |
| `N#CC1(NC(=O)c2ccc(-c3nc(C4CC4)n[nH]3)cc2)CCSC1` (stereo not shown) | 1.318 |
| `COc1ccccc1Oc1ncccc1CNC(=O)C1COC(=O)N1` (stereo not shown) | 1.875 |
| `CN(C)C(=O)C1OC2(CCN(c3ncc(F)cn3)CC2)c2ccccc21` (stereo not shown) | 3.015 |
| `Cc1nc(CN2C(=O)C[C@@H]3[C@@H]2CCN3S(C)(=O)=O)cs1` | 4.119 |
| `CCc1cn[nH]c1C1CCCN(C(=O)c2cnc(NC(C)C)nc2)C1` (stereo not shown) | 3.535 |
| `CCn1nc(CC(C)C)cc1C(=O)NCc1c(C)cc(C)nc1OC` | 2.058 |
| `O=C(Cc1cccc(F)c1F)NS(=O)(=O)c1ccc(Cl)cn1` | 5.046 |
| `Cc1cc(C)c2nc(C3CC3)cc(C(=O)N3CCCC3C(N)=O)c2c1` (stereo not shown) | 0.5557 |
| `COc1ccc(-c2csc3c2c(N)nc(=O)n3CC(N)=O)cc1` | 3.516 |
| `CN(Cc1cnn(C)c1)C1CCN(c2cccc(-c3cscn3)c2)CC1` | 1.432 |
| `COc1ccc(C(C)N(C)Cc2c(C(C)(C)C)[nH]c3ncccc23)cc1` (stereo not shown) | -0.8038 |
| `Cc1nn(C)c(Oc2ccccc2)c1CNC1CCOc2ccccc21` (stereo not shown) | 2.89 |
| `N#Cc1ccc(CNCCc2cc(F)cc3c2OCOC3)cc1` | 2.868 |
| `CC1COCCN1Cc1nc(-c2ccc(Br)s2)no1` (stereo not shown) | -1.382 |
| `CCN(C)CC(=O)N1CCc2nc(NC)nc(C(=O)N3CCCC3)c2C1` | 2.857 |
| `Cc1ncnc2c1CCN(C(=O)c1ccncc1F)CC2` | -0.4876 |
| `N#CC1(C(=O)N2CCN(Cc3cscn3)CC2)CCCC1` | 6.648 |
| `Cc1cc(C)nc(N2CCc3ccc(OC(F)F)cc3C2)n1` | 1.505 |
| `CNc1cccc(C2CCCN(Cc3ncc[nH]3)C2)n1` (stereo not shown) | 1.231 |
| `O=C(C1CCCN(c2nc3ccccc3cc2CO)C1)N1CCCC1` (stereo not shown) | 1.124 |
| `O[C@]12CC[C@H](CC1)N(Cc1ccc(F)cc1)C2CN1CCOCC1` (stereo partly shown) | 4.372 |
| `CC(C)(C)OC(=O)N1CC(=O)N(CCc2ccccc2)CC(O)C1` (stereo not shown) | 0.02381 |
| `O=C(NC1CC(=O)N(C2Cc3ccccc3C2)C1)c1cc[n+]([O-])cc1` (stereo not shown) | -2.966 |
| `c1c(CN2CCOCC2)nc2n1CCN(C1CCOCC1)C2` | 1.751 |
| `CCNC(=O)NC(C)(C)C(=O)NCCc1csc2ccccc12` | 5.06 |
| `Cc1nnc(CN2CCCCC2c2nc(-c3ccccc3)no2)s1` (stereo not shown) | 2.828 |
| `CCCc1noc(C2CCN(C(=O)C3CCCO3)CC2)n1` (stereo not shown) | 12.42 |
| `Cn1ccc(C(=O)NC2CCC23CCN(C(=O)c2ccccn2)CC3)c1` (stereo not shown) | -2.601 |
| `O=C(NS(=O)(=O)c1c(Cl)cccc1Cl)c1cccc2c1OCCO2` | 2.566 |
| `COCCN1CCC(NCc2c(C)nn(C)c2N(C)C)CC1` | 4.253 |
| `Cn1cc(-c2nc(CN3CCOC(Cn4cccn4)C3)cs2)cn1` (stereo not shown) | 3.402 |
| `Cc1nn(C)cc1S(=O)(=O)NCC(C)Cn1cc(Cl)cn1` (stereo not shown) | -1.814 |
| `Cc1cccc(NC(=O)N2Cc3c(CN(C)C)nn(C)c3C2)c1` | 4.385 |
| `Cc1n[nH]c(C2CN(C(=O)c3coc(Br)c3)CCO2)n1` (stereo not shown) | -1.616 |
| `Cc1c(Cl)cccc1NC(=O)CCNc1ccc(C#N)cn1` | 6.156 |
| `CCc1nc(C)sc1CN1CC[C@](C)(O)[C@H](C)C1` | 3.496 |
| `CN1CCN(C)C(CNC(=O)N(C)Cc2ccccc2Cl)C1` (stereo not shown) | 3.63 |
| `O=C(c1ccccc1)N1CC2(CCNC2)OCc2ccccc21` (stereo not shown) | -1.564 |
| `Nc1cc(N2CCCC(CO)(Cc3ccccc3F)C2)nc(N)n1` (stereo not shown) | -6.982 |
| `O=C(NCCc1c[nH]cn1)c1ccccc1C1CCNC1` (stereo not shown) | -1.873 |
| `CC(C)N1CCC(C(=O)N2CCN(c3cccc(C(=O)O)c3)CC2)CC1` | 4.401 |
| `Cc1oncc1C(=O)N1CCC(O)(CN2CCOCC2)C(C)(C)C1` (stereo not shown) | 0.9388 |
| `COCCCN1CCN(CCOC)C(C)C1` (stereo not shown) | 0.8041 |
| `CNC(=O)C1CCN(C(=O)NCc2ccc(C)n2C)CC1` | 9.316 |
| `Cc1cnc(Nc2cccc(C3CCCN3C(=O)CO)n2)s1` (stereo not shown) | 1.99 |
| `CC(C(=O)N1CCOCC1)S(=O)(=O)Cc1noc(C(C)(C)C)n1` (stereo not shown) | 7.68 |
| `CNC(=O)C1CCN(C(=O)NCCc2ccc(Cl)s2)CC1` | 1.702 |
| `CNC(=O)CCN1CCCC1c1ccccc1Br` (stereo not shown) | 2.174 |
| `COc1ccc(CCn2cnc(C#N)n2)cc1` | 4.853 |
| `CCN(CCCNC(=O)Nc1ccccc1C(C)C)S(C)(=O)=O` | 2.841 |
| `COc1ccc([C@@H]2CN(C(=O)CCC(F)(F)F)C[C@H]2NC(C)=O)cc1` | 2.069 |
| `Cc1nn(C)cc1-c1cc(C(F)(F)F)nc(NC2CCN(C)CC2)n1` | -0.09146 |
| `CCN1CC2(CCOCC2)c2cc(NS(=O)(=O)CC)ccc21` | 7.059 |
| `Nc1nc(N2CCCC(COc3ccc(F)cc3)C2)c2nc[nH]c2n1` (stereo not shown) | 2.278 |
| `Cc1nnc2n1CCN(C(=O)CN1C(=O)C(C)Oc3ccccc31)C2` (stereo not shown) | 7.031 |
| `O=C(O)c1c(-c2cccnc2)ncc2c1CCN(Cc1ccccn1)C2` | 9.224 |
| `O=C(N1CCC(OCc2ccccn2)CC1)C1(c2ccc(F)cc2)CC1` | 4.275 |
| `Cc1cc(CCC(N)=O)cc(C2CCCN2Cc2cnc(C)nc2)n1` (stereo not shown) | -0.4031 |
| `CN(CC(=O)NCc1ccco1)Cc1nc2c(s1)CCCC2` | 4.438 |
| `Cc1cccc(C2(O)CCN(C(=O)c3ccccn3)CC2)c1C` | 7.028 |
| `COc1ccc(CN2CCN(C(C)c3nc(C4CC4)no3)CC2)cc1` (stereo not shown) | 4.009 |
| `Cc1ccc(C(C)N(C)Cc2nc3c(cnn3C)c(=O)[nH]2)s1` (stereo not shown) | 1.498 |
| `COc1ccccc1C(C)(C)NC(=O)NC1CCC(O)CC1` (stereo not shown) | -0.8169 |
| `CN(C)c1cc(CNC(=O)c2ccccc2Cl)ccn1` | 1.209 |
| `CC1CCC(NC(=O)NCC(C)(C)CCS(C)(=O)=O)CC1` (stereo not shown) | 4.134 |
| `CN(C)S(=O)(=O)N1CCC(Cn2cccn2)CC1` | 2.909 |
| `Cc1n[nH]cc1C(=O)N1CCCC1c1cc[nH]n1` (stereo not shown) | 1.55 |

The first 5 entries again:

With Cc1nn(C)c(C)c1NC(=O)CNc1cc(C(F)(F)F)ccc1F the screen gave 1.087%.
With COc1ccc(C(C)=O)c(OCC(=O)NC(C)c2ccc(F)cc2)c1 (stereo not shown) the screen gave 3.924%.
With COCCNCc1ccc(OCC(=O)NC(C)(C)C)cc1 the screen gave -2.079%.
With CC(=O)NC(Cc1c[nH]c2cc(F)ccc12)C(=O)Nc1cnn(C)c1 (stereo not shown) the screen gave 1.576%.
With Cc1cc(O)c(OCC(=O)/N=c2\[nH]cc(C)s2)cn1 the screen gave 8.671%.